# Measured values taken from patent US20240409598A1, “PEPTIDE INHIBITORS OF INTERLEUKIN-23 RECEPTOR” (Janssen Biotech, Inc., priority 2021, published 2024).
# For at least one compound, name, drawing or mass did not settle the structure. Where a SMILES comes first, the peptide text is derived from it. Bridges are numbered along the chain shown (N, C = ends). [ ]: non-standard residue; d: D form. The star is where a group is joined. Trp(7-Me) = Cc1cccc2c(C[C@H](N)C(=O)O)c[nH]c12; 2Nal = N[C@@H](Cc1ccc2ccccc2c1)C(=O)O; 3Pal = N[C@@H](Cc1cccnc1)C(=O)O; Ethyl(2-guanidino) = N=C(N)NCC*; Pen = CC(C)(S)[C@H](N)C(=O)O; Thp = NC1(C(=O)O)CCOCC1; Sar = CNCC(=O)O
# Test system: peripheral blood mononuclear cells (PBMCs)
# Assay: PBMC pSTAT3 Assay
# Type: cell-based
# Conditions: PBMCs from healthy donors; IL-23 5 ng/ml; 30 minutes stimulation
# Description: Cryopreserved peripheral blood mononuclear cells (PBMCs) from healthy donors were thawed and washed twice in ImmunoCult-XF T cell expansion medium (XF-TCEM) supplemented with CTL anti-aggregate wash. The cells were counted, resuspended at 2×10^5 cells per mL XF-TCEM supplemented with penicillin/streptomycin and 100 ng/ml […] (BioLegend, 579404), and cultured in tissue culture flasks coated with anti-CD3 (eBioscience, 16-0037-85 or BD Pharmingen, 555329) at 37° C. in 5% CO2. On day 4 of culture, PBMCs were collected, washed twice in RPMI-1640 supplemented with 0.1% BSA (RPMI-BSA), and incubated in RPMI-BSA in upright tissue culture flasks for 4 hours at 37° C. in 5% CO2. Following this ‘starvation,’ a total of 6×10^4 cells in 30 μL RPMI-BSA was transferred into each well of a 384-well plate pre-spotted with peptide or DMSO. The cells were incubated for 30 minutes prior to the addition of IL-23 at a final concentration of 5 ng/ml. The cells were stimulated with cytokine for 30 minutes at 370C in 5% CO2, transferred onto ice for 10 minutes, and lysed. Cell lysates were stored at −80° C. until phosphorylated STAT3 was measured using the phospho-STAT panel kit (Meso Scale Discovery, K15202D).
structure (smiles),measurement,value
"CC(=O)NCCCC[C@@H]1NC(=O)[C@H](Cc2c[nH]c3c(C)cccc23)NC(=O)[C@H]([C@@H](C)O)NC(=O)[C@H](CC(N)=O)NC(=O)[C@@H](NC(C)=O)C(C)(C)SSC(C)(C)[C@@H](C(=O)N[C@@H](Cc2ccc(OCCNC(=N)N)cc2)C(=O)N[C@@H](Cc2ccc3ccccc3c2)C(=O)NC2(C(=O)N[C@@H](CCC(=O)O)C(=O)N[C@@H](CC(N)=O)C(=O)N[C@@H](Cc3cccnc3)C(=O)N(C)CC(N)=O)CCOCC2)NC1=O [compound 477, MeCO-Pen-N-T-7MeW-K(Ac)-Pen-AEF(G)-2Nal-THP-E-N-3Pya-Sar-CONH2] (Ac-[Pen]NT[Trp(7-Me)]K(Ac)[Pen]Y(Ethyl(2-guanidino))[2Nal][Thp]EN[3Pal][Sar]-NH2; disulfide 1-6)",IC50,5.5 pM
